Reference: PubChem BioAssay AID504834 (National Center for Advancing Translational Sciences (NCATS), 2011)
The whole screen tested about 320,000 compounds, of which about 22,000 (6.9%) were called active. Inconclusive results, whose numbers are uncertain, are shown with a selection of clear calls. Calls come from the whole dose curve; as a rule, active = well fitted inhibition curve with a large enough effect; inconclusive = small, poorly fitted or top-dose-only effect, or another doubt; inactive = no such curve, though single readings can be large or run the other way. Potencies of inconclusive entries are doubtful fits and often do not repeat.

Test: Primary qHTS for delayed death inhibitors of the malarial parasite plastid, 96 hour incubation
Settings: P. falciparum luciferase reporter growth; series mostly up to 28.7 µM
Summary of the method: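 Two-generation exposure (96 h) targets delayed-death phenotype. Reporter parasites carrying integrated firefly luciferase, in red cells at 2% hematocrit and 0.05% parasitemia final, kept at 37 C, 5% CO2; luminescence loss indicates inhibition.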
Potency is the fitted concentration of half-maximal effect.

SMILES | Potency
CCn1c(C)c(P(c2ccccc2)c2ccccc2)[n+]2ccccc12 | active: 8.28 µM
CCN(CC)c1ccc(NC(=O)c2nc3nc(C)cc(C(F)F)n3n2)cc1 | inconclusive: 0.0037 µM [inhibitor, full curve, poor fit]
CCOC(=O)C(C)n1cnc2c(nnn2-c2ccc(F)cc2)c1=O (stereo not given) | inactive
CC(OC(=O)CCCCCN=C1NS(=O)(=O)c2ccccc21)C(=O)Nc1cc(Cl)cc(Cl)c1 (stereo not given) | inactive
CCCCN1C(=O)C(=O)N(CC(=O)Nc2cccc(C(C)=O)c2)C1=O | inactive
CCCCOc1c(Cl)cc(C(=O)N2CCN(CC(=O)N3CCCC3)CC2)cc1OCC | inconclusive: 5.22 µM [inhibitor, partial curve]
COc1cccc(/C=C2\SC(=S)N(C(Cc3ccccc3)C(=O)O)C2=O)c1 (stereo not given) | inactive
Nc1nc(CSc2nc3ccccc3s2)nc(N2CCOCC2)n1 | inactive
CCOc1ccc(-c2nc(N)ncc2-c2ccc(OC)cc2)c(O)c1 | inconclusive: 16.5 µM [inhibitor, single point]
COc1ccc(CCNC(=O)C2CC(=O)N(C3CCCCC3)C2)cc1OC (stereo not given) | inconclusive: 4.65 µM [inhibitor, partial curve]
CC1CCN(c2nc(N3CCCCC3)nc(N3CCCCC3)n2)CC1 | inconclusive: 2.08 µM [inhibitor, partial curve, poor fit]
CCOC(=O)c1ccc(-n2nc(C)cc2C)cc1 | inactive
O=C(c1ccccc1)c1cn(CC(=O)N2CCCc3ccccc32)c2ccccc12 | inconclusive: 18.5 µM [inhibitor, single point]
COC(=O)CNC(=O)c1ccc(F)cc1 | inactive
COc1ccccc1NC(=O)Nc1ccnn1C1CCN(C(=O)c2cccnc2)CC1 | inconclusive: 13.1 µM [inhibitor, partial curve]
Nn1c(SCC(=O)NC2CCCc3ccccc32)nnc1-c1cccs1 (stereo not given) | inconclusive: 11.7 µM [inhibitor, single point]
COc1cc(NC(=O)c2cccc3c2C(=O)N(C2CCCCC2)C3)cc(OC)c1OC | inconclusive: 18.5 µM [inhibitor, single point]
COC(=O)c1onc(C(=O)c2ccccc2)c1C(=O)OC | inconclusive: 0.465 µM [inhibitor, full curve]
Cc1ccc(C(C)C)c(OCC(=O)N2CCN(c3ncccn3)CC2)c1 | inactive
CCCC(C(=O)Nc1ccncc1)c1ccccc1 (stereo not given) | active: 2.94 µM
Cc1ccccc1NC(=O)Cc1nc(COC(=O)CCNS(=O)(=O)c2ccccc2)cs1 | inconclusive: 6.57 µM [inhibitor, partial curve, poor fit]
Cc1ccc(NC(=S)N2CCN(S(=O)(=O)c3c(F)cccc3F)CC2)cc1C | inactive
Cc1cc(C(=O)COc2ccc(F)cc2Br)c(C)n1C | inactive
Cc1ccc(C(=O)C2=C(O)C(=O)N(Cc3ccco3)C2c2ccc(N(C)C)cc2)o1 (stereo not given) | active: 11.7 µM

SMILES | Potency
C/C(=N\NC(=O)Cn1ccc(C(F)(F)F)n1)c1ccc2c(c1)OCO2 | inactive
CC1CCC(NC(=O)CCS(=O)(=O)c2ccc3c(c2)oc(=O)n3C)CC1 (stereo not given) | inactive
O=C1COc2ccc(S(=O)(=O)CCC(=O)N3CCN(c4cccc(C(F)(F)F)c4)CC3)cc2N1 | inconclusive: 0.465 µM [inhibitor, full curve]
COC(=O)[C@]1(CC(C)C)N[C@H](c2ccc(-c3cccc(Cl)c3)cc2)[C@@H]2C(=O)N(C)C(=O)[C@@H]21 | active: 1.31 µM
COc1ccc([C@H]2CC(=O)C=C(/C=C/Cc3ccccc3)C2)cc1 | inconclusive: 0.415 µM [inhibitor, full curve, poor fit]
COc1ccc(Nc2oc(-c3ccco3)nc2S(=O)(=O)c2ccc(F)cc2)cc1 | inconclusive: 16.5 µM [inhibitor, single point]
COc1ccc(C2CC(=O)N(CC(=O)NCC3CCCO3)c3ccccc3S2)cc1OC (stereo not given) | inconclusive: 18.5 µM [inhibitor, single point]
O=C(CCc1ccccc1)NNC(=S)NC(=O)c1ccccc1 | inconclusive: 18.5 µM [inhibitor, single point]
O=C(CSc1nnc(-c2ccccc2Br)o1)N1CCc2ccccc2C1 | active: 3.29 µM
COc1cccc(C(=O)NC2CCN(CC(=O)NCc3ccccc3F)CC2)c1 | inconclusive: 11.7 µM [inhibitor, single point]
O=C(/C=N/NC(=O)c1ccc(Cl)cc1Cl)c1ccccc1 | inactive
CN(C(=O)COC(=O)c1ccc2ccccc2n1)C1CCS(=O)(=O)C1 (stereo not given) | inactive
O=C(NNC1=NCCCCC1)Nc1ccc(Cl)cc1 | inactive
COc1cc2c(cc1OC)C1(NCC2)C(=O)Nc2ccccc21 (stereo not given) | inconclusive: 18.5 µM [inhibitor, single point]
CCOC(=O)CCN(c1ccccc1)S(=O)(=O)c1ccc(-c2ccc(=O)[nH]n2)s1 | inconclusive: 7.38 µM [inhibitor, partial curve]
CC(NC(=O)CN(c1ccccc1F)S(C)(=O)=O)c1ccccc1 (stereo not given) | inconclusive: 13.1 µM [inhibitor, single point]
Cc1cc(C)nc(N2CCCC(C(=O)NCc3cccs3)C2)n1 (stereo not given) | inconclusive: 2.94 µM [inhibitor, full curve]
Cc1c(N/C(=N/S(=O)(=O)c2ccccc2)c2ccc(Cl)cc2)c(=O)n(-c2ccccc2)n1C | inactive
COc1ccc(/C(C)=N/NC(=O)c2cccc(S(=O)(=O)N3CCCC3)c2)c(O)c1 | inconclusive: 10.4 µM [inhibitor, partial curve, poor fit]
CCOC(=O)N(C)c1ccc(C(O)(C(F)(F)F)C(F)(F)F)cc1 | inconclusive: 10.4 µM [inhibitor, single point]
Cc1ccccc1NC(=O)CSc1nnc(Cc2ccccc2)c(=O)n1N | inactive
CCOC(=O)N1CCN(C(=O)c2c[nH]c3ccc(S(=O)(=O)N(C)c4ccc(F)cc4)cc3c2=O)CC1 | inconclusive: 8.28 µM [inhibitor, partial curve]
COc1ccc(CC(NC(C)=O)C(=O)NC2CCN(C(=O)c3ccc(OC)c(OC)c3)CC2)cc1OC (stereo not given) | inconclusive: 13.1 µM [inhibitor, single point]
CCCNC(=O)C(=O)NCCC1=CCCCC1 | inactive

SMILES | Potency
COc1ccccc1N1CCN(C(=O)c2cccc3c(=O)c(C)c(-c4ccccc4)oc23)CC1 | inconclusive: 3.7 µM [inhibitor, full curve, poor fit]
CN(C)C(=O)c1cc(C(=O)c2ccccc2)c[nH]1 | inactive
Cc1cc2c(s1)CCCCC(=O)N2 | inactive
CCN(CC)C(=O)C1CCCN(C(=O)Nc2ccccc2)C1 (stereo not given) | inconclusive: 2.62 µM [inhibitor, full curve, poor fit]
CC1CCCCN1C(=O)c1cc2nc(-c3ccccc3)cc(-c3ccccc3)n2n1 (stereo not given) | inconclusive: 9.28 µM [inhibitor, single point]
O=C(Nc1ccccc1N1CCCC1)c1cccc(S(=O)(=O)N2CCOCC2)c1 | inconclusive: 4.15 µM [inhibitor, single point]
CCCCCCc1ccc(N2C[C@H](Cc3ccccc3)[C@@H](CC(=O)Nc3ccccc3)C2=O)cc1 | inconclusive: 11.7 µM [inhibitor, partial curve, poor fit]
COc1cc(NC(=O)CCn2c(=O)[nH]c3ccsc3c2=O)cc(OC)c1 | inconclusive: 14.7 µM [inhibitor, single point]
CCOC(=O)C1CCCN(C2=C(NS(=O)(=O)c3ccc(Br)cc3)C(=O)c3ccccc3C2=O)C1 (stereo not given) | active: 2.94 µM
CCOC(=O)C1=C(COC(=O)COc2ccc(C#N)cc2)NC(=O)NC1C (stereo not given) | inactive
CC(=O)N(Cc1c(C)nn(-c2ccccc2)c1Cl)c1ccc(Cl)cc1 | inconclusive: 9.28 µM [inhibitor, partial curve]
CSc1ccc(CN2CCN(Cc3ccccc3Cl)CC2)cc1 | inconclusive: 11.7 µM [inhibitor, partial curve, poor fit]
COc1ccc(CCN(C)C(=O)c2c(C)nn(-c3ccccc3)c2C)cc1OC | inconclusive: 16.5 µM [inhibitor, single point]
Cc1occc1C(=O)NNC(=O)Nc1ccc(Cl)c(Cl)c1 | inconclusive: 13.1 µM [inhibitor, single point]
O=C(/C=C/c1ccccc1[N+](=O)[O-])c1ccccc1Br | inactive
O=c1[nH]cnc2c1ncn2[C@H]1CC[C@@H](CO)O1 | inconclusive: 13.5 µM [inhibitor, single point]
CC(C)N(C(=O)CSc1ccc(S(=O)(=O)N2CCCCC2)cn1)c1ccccc1 | inconclusive: 9.28 µM [inhibitor, partial curve, poor fit]
C[C@@H]1CC2[C@@H]3CC[C@H]4CC(=O)CC[C@]4(C)C3=CC[C@]2(C)[C@@]1(O)C(=O)CO (stereo not given in full) | inconclusive: 4.15 µM [inhibitor, partial curve, poor fit]
O=C(NCCCN1CCCC1)c1ccc(Cn2c(=S)[nH]c3ccc(Br)cc3c2=O)cc1 | inactive
COc1ccc(CCNC(=O)CCS(=O)(=O)c2ccc3c(c2)CCN3C(C)=O)cc1OC | inconclusive: 3.29 µM [inhibitor, full curve]
CSc1nc2c(cc1C#N)C(=O)CC(C)(C)C2 | inconclusive: 5.22 µM [inhibitor, partial curve]
CCOc1ccc(C(=O)NCC(=O)NC(C)c2ccc(-n3ccnc3)cc2)cc1OCC (stereo not given) | inconclusive: 20.8 µM [inhibitor, single point]

By substructure: those above containing a cyano group (2)
SMILES | Potency
CCOC(=O)C1=C(COC(=O)COc2ccc(C#N)cc2)NC(=O)NC1C (stereo not given) | inactive
CSc1nc2c(cc1C#N)C(=O)CC(C)(C)C2 | inconclusive: 5.22 µM [inhibitor, partial curve]

2 compounds drawn at random from those above:
SMILES | Potency
CC(C)N(C(=O)CSc1ccc(S(=O)(=O)N2CCCCC2)cn1)c1ccccc1 | inconclusive: 9.28 µM [inhibitor, partial curve, poor fit]
CCOc1ccc(C(=O)NCC(=O)NC(C)c2ccc(-n3ccnc3)cc2)cc1OCC (stereo not given) | inconclusive: 20.8 µM [inhibitor, single point]
